PubChem BioAssay AID1508597 | Cure First – 2020
This is an unselected part of the about 2,100 reagents, in one setting of the screen. 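Calls flag viability under 80% in either arm, not effects specific to rucaparib; the reference for percent is not stated.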 Entries without a mark were called inactive. A reagent listed more than once was tested more than once; the source does not tell the runs apart. The record does not give: the 100% reference.

Screen: 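Knock-downs altering ovarian cancer cell survival with or without PARP inhibitor rucaparib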 (primary screen)
System: human ovarian carcinoma lines grown from tumours: OCI-P5x (papillary serous) and OCI-C5x (clear cell)
Reagents: siRNA pool against human genes, 1.25 pmol siRNA per well
Timing: 72 h or 96 h, depending on the cell culture
Treatment: rucaparib 20 µM (about IC30) or vehicle, present until read-out
Rucaparib or vehicle: Vehicle
Cell line: OCI-P5x (serous)
Read-out: 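ATP luminescence measured at 72 or 96 h according to the culture, then normalised and expressed as percent viability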
Reading the numbers: viability, normalised: higher = more viable cells remaining
Rule for the call: 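Active when normalised viability falls below 80 percent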
Calls: active = viability under 80%; inactive = viability 80% or more

The opening 2 entries, ahead of the listing:
| Target gene | technical replicate | viability, normalised (%) |
| --- | --- | --- |
| NQO2 | 1 | 91 |
| NQO2 | 2 | 86.5 |

The listing, from the first entry:
| Target gene | technical replicate | viability, normalised (%) |
| --- | --- | --- |
| NQO2 | 1 | 91 |
| NQO2 | 2 | 86.5 |
| NQO2 | 3 | 80 |
| EID2 | 1 | 61.8 (active) |
| EID2 | 2 | 64.1 (active) |
| EID2 | 3 | 81.3 |
| CASK | 1 | 105 |
| CASK | 2 | 111 |
| CASK | 3 | 85.6 |
| MORF4L1 | 1 | 63.5 (active) |
| MORF4L1 | 2 | 68.6 (active) |
| MORF4L1 | 3 | 47.8 (active) |
| MAP3K6 | 1 | 117 |
| MAP3K6 | 2 | 95.6 |
| MAP3K6 | 3 | 97 |
| DCLRE1C | 1 | 55.8 (active) |
| DCLRE1C | 1 | 50.2 (active) |
| DCLRE1C | 2 | 60.5 (active) |
| DCLRE1C | 2 | 55.5 (active) |
| DCLRE1C | 3 | 52.4 (active) |
| DCLRE1C | 3 | 56 (active) |
| TINF2 | 1 | 57.1 (active) |
| TINF2 | 2 | 56.6 (active) |
| TINF2 | 3 | 42.9 (active) |
